Source: PubChem BioAssay AID504744 (Drosophila RNAi Screening Center, 2011)
In all, the deposit lists about 23,000 reagents; this is a random part of those with a known target gene and a result. Of all reagents, 98 (0.43%) were called active. 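Only hit calls are given; the phospho-dAkt signals, z-scores and hit direction were not deposited.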 The numbers tell different reagents against one gene apart. Names joined by + are all predicted targets of the reagent.

Test: 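Find genes whose loss alters insulin-driven dAkt phosphorylation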 (primary screen)
System: Drosophila Kc167 cells
Reagent: long dsRNA against Drosophila genes, 250 ng dsRNA per well of a 384-well plate
Timing: 3 days of knock-down, then overnight serum-free starvation before stimulation
Treatment: bovine insulin at 387 nM for 10 minutes after 12 h without serum
Detection: 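Per-well phospho-dAkt level from an in-cell fluorescent antibody stain, divided by a DNA-dye signal; log2 residuals turned into z-scores that take cell number into account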
Hit rule: 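Under insulin, a gene counts as a hit if the average z-score of two replicates lies above 2.5 or below -2.5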

The first 8 records, to show the layout:
| gene | dsRNA no. | Call |
| --- | --- | --- |
| CG4586 | 1 | inactive |
| Hsp83 | 1 | inactive |
| Jabba | 1 | inactive |
| Ac78C | 1 | inactive |
| Ac78C | 2 | inactive |
| Ac78C | 3 | inactive |
| CG18635 | 1 | inactive |
| Lsp1alpha | 1 | inactive |

Results, from the start:
| gene | dsRNA no. | Call |
| --- | --- | --- |
| CG4586 | 1 | inactive |
| Hsp83 | 1 | inactive |
| Jabba | 1 | inactive |
| Ac78C | 1 | inactive |
| Ac78C | 2 | inactive |
| Ac78C | 3 | inactive |
| CG18635 | 1 | inactive |
| Lsp1alpha | 1 | inactive |
| CG9147 | 1 | inactive |
| TP53INP | 1 | inactive |
| TP53INP | 2 | inactive |
| obst-H | 1 | inactive |
| obst-H | 2 | inactive |
| Trhn | 1 | inactive |
| neb | 1 | inactive |
| CG34175 | 1 | inactive |
| Myb | 1 | inactive |
| GCC88 | 1 | inactive |
| ItgaPS4 | 1 | inactive |
| CG7896 | 1 | inactive |
| CG33914 | 1 | inactive |
| CG42562 | 1 | inactive |
| EMC10 | 1 | inactive |
| Rcd-1 | 1 | inactive |
| Sh3beta | 1 | inactive |
| Sh3beta | 2 | inactive |
| RpS3 | 1 | inactive |
| Eig71Ej | 1 | inactive |
| slv | 1 | inactive |
| eIF3b | 1 | inactive |
| Cht8 | 1 | inactive |
| Hsc70-4 | 1 | active |
| Obp44a | 1 | inactive |
| Prp4k | 1 | inactive |
| Wbp2 | 1 | inactive |
| CG1552 | 1 | inactive |
| ssp3 | 1 | inactive |
| ssp3 | 2 | inactive |
| CG7309 | 1 | inactive |
| CG9737 | 1 | inactive |
| Rpn3 | 1 | inactive |
| yellow-f2 | 1 | inactive |
| Btk | 1 | inactive |
| Btk | 2 | inactive |
| Btk | 3 | inactive |
| CG7326 | 1 | inactive |
| bai | 1 | inactive |
| CG32647 | 1 | inactive |
| CG32647 | 2 | inactive |
| ND-MLRQ | 1 | inactive |
| CG5885 | 1 | inactive |
| CG15336 | 1 | inactive |
| CG5556 | 1 | inactive |
| mio | 1 | inactive |
| mio | 2 | inactive |
| hpRNA:CR32207 | 1 | inactive |
| I-t | 1 | inactive |
| CG32214 | 1 | inactive |
| CG2616 | 1 | inactive |
| CG11710 | 1 | inactive |
| Naxe | 1 | inactive |
| Start1 | 1 | inactive |
| Vha13 | 1 | inactive |
| CG42741 | 1 | inactive |
| CG42741 | 2 | inactive |
| CG6293 | 1 | inactive |
| CG14630 | 1 | inactive |
| CG14630 | 2 | inactive |
| eIF3g2 | 1 | inactive |
| Pkn | 1 | inactive |
| Pkn | 2 | inactive |
| Alg11 | 1 | inactive |
| Sgs4 | 1 | inactive |
| CG4313 | 1 | inactive |
| CG42580 | 1 | inactive |
| CG18417 | 1 | inactive |
| ase | 1 | inactive |
| TM4SF | 1 | inactive |
| B52 | 1 | inactive |
| CG2162 | 1 | inactive |
| CG14431 | 1 | inactive |
| CG42709 | 1 | inactive |
| CG8635 | 1 | inactive |
| RnrS | 1 | inactive |
| mrva | 1 | inactive |
| mrva | 2 | inactive |
| Adgf-E | 1 | inactive |
| CG12868 | 1 | inactive |
| CG11693 | 1 | inactive |
| CG14183 | 1 | inactive |
| 14-3-3zeta | 1 | inactive |
| CG7488 | 1 | inactive |
| CG14182 | 1 | inactive |
| mbm + CG11555 | 1 | inactive |
| ENGase | 1 | inactive |
| ENGase | 2 | inactive |
| betaggt-I | 1 | inactive |
| Sp212 | 1 | inactive |
| cDIP | 1 | inactive |
| CG4617 | 1 | inactive |
| CG13731 | 1 | inactive |
| PolZ1 | 1 | inactive |
| Cog1 | 1 | inactive |
| CG15047 | 1 | inactive |
| CG15047 | 2 | inactive |
| CG17304 (retired record) | 1 | inactive |
| Takl1 | 1 | inactive |
| Asph | 1 | inactive |
| Asph | 2 | inactive |
| NimC2 | 1 | inactive |
| ND-13B | 1 | inactive |
| CG30487 | 1 | inactive |
| Ibf2 | 1 | inactive |
| CheB53a | 1 | inactive |
| tos | 1 | inactive |
| CG14760 | 1 | inactive |
| nop5 | 1 | inactive |
| D2hgdh | 1 | inactive |
| CG42326 | 1 | inactive |
| CG42326 | 2 | inactive |
| dtn | 1 | inactive |
| CG8997 | 1 | inactive |
| Dhpr | 1 | inactive |
| ND-15 | 1 | inactive |
| VhaM9.7-d | 1 | inactive |
| Sar1 | 1 | inactive |
| Sar1 | 2 | inactive |
| CG2921 | 1 | inactive |
| Acbp6 | 1 | inactive |
| Cp38 | 1 | inactive |
| Eaat2 | 1 | inactive |
| Eaat2 | 2 | inactive |
| lncRNA:CR42862 | 1 | inactive |
| CG32213 + CG12519 + 825-Oak + 1 more | 1 | inactive |
| chic | 1 | inactive |
| drpr | 1 | inactive |
| drpr | 2 | inactive |
| stmA | 1 | inactive |
| stmA | 2 | inactive |
| stmA | 3 | inactive |
| Idgf2 | 1 | inactive |
| jagn | 1 | inactive |
| Ppox | 1 | inactive |
| ZnT33D | 1 | inactive |
| Edg78E | 1 | inactive |
| CG40198 | 1 | inactive |
| mthl3 | 1 | inactive |
| Hel89B | 1 | inactive |
| Hel89B | 2 | inactive |
| eIF3j | 1 | inactive |
| CG17855 | 1 | inactive |
| CG32374 | 1 | inactive |
| CG4669 | 1 | inactive |
| Nepl8 | 1 | inactive |
| thoc5 | 1 | inactive |
| CG31278 | 1 | inactive |
| Ubx | 1 | inactive |
